The values below are quoted from earlier work in paper PMC10354432, “Preparation of caffeic acid grafted chitosan self-assembled micelles to enhance oral bioavailability and antibacterial activity of quercetin” (Frontiers in Veterinary Science, 2023).

For this data set the following is noted: cited from earlier work.

Values after ≈ are worked out from the molar mass of the structure shown. Read-outs that look alike come from different tables or passages of the source.

On to `O=c1c(O)c(-c2ccc(O)c(O)c2)oc2cc(O)cc(O)c12` [QR, Quercetin], for which the solubility in water by setting is: (ref 11) 0.17 to 7.70 µg/mL; (ref 12, 13) 7.7 µg/mL (≈ 25.5 µM).
